Values from PubChem BioAssay AID720505 (Drosophila RNAi Screening Center, 2013)

- Assay: 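Fly regulators or components of the CRAC channel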 (primary screen)
- System: Drosophila S2R+ cells
- Reagents: long dsRNA against Drosophila genes
- Conditions: thapsigargin (2 µM) in calcium-free buffer to empty internal stores, then 2 mM calcium added back
- Measured: 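Fluo-4 signal in 384-well plates read on a FLIPR after thapsigargin (2 µM, calcium-free) store depletion and 2 mM calcium add-back; unnormalised mean endpoint per well; screen run twice, selected wells retested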
- Direction: calcium signal and retest calcium signal: higher = more calcium entry after store depletion
- Call rule: 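Knock-downs counted as hits when calcium entry dropped relative to STIM1 positive and Rho1 negative controls present on each plate; roughly 1500 genes called, with reductions of differing size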
- Meaning of the calls: active = called as lowering calcium entry; inactive = not called
The screen tested about 20,000 reagents; below is an unselected part of those with a known target gene and a result. In the full data, about 2,100 (10%) are marked active. 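Raw plate signals without normalisation; calls rest on control-based scores that were not deposited; replicate 2 separates called from uncalled poorly.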 Unmarked entries are inactive. Reagents against one gene are numbered here. Names joined by + are all predicted targets of the reagent. Not given: the amount of reagent, the time to read-out.

Gene	reagent no.	calcium signal, replicate 1	calcium signal, replicate 2	retest calcium signal, replicate 1	retest calcium signal, replicate 2
Fsn (F-box synaptic protein)	1	162	132		
CG4230	1	88.1	206		
Nap1 (Nucleosome assembly protein 1)	1	102	98.6		
indra	1	157	116		
Sobp (Sine oculis-binding protein)	1	180	135		
msl-1 (male-specific lethal 1)	1	91	75.4		
CG7755	1	128	126		
Ctu1 (Cytosolic thiouridylase subunit 1)	1	147	110		
Axn (Axin)	1	221	259	5597	140
Arl6IP1 (ADP-ribosylation factor-like 6 interacting protein 1)	1	143	139		
Ugt37D1 (UDP-glycosyltransferase family 37 member D1)	1	117	89.3		
CG9877	1	136	230		
Ubc4 (Ubiquitin conjugating enzyme 4)	1	105	95.7		
CG13670	1	84.3	84.2		
Rx (Retinal Homeobox)	1	79.1	7138		
Rx (Retinal Homeobox)	2	155	109		
Mi-2	1	87.2	120		
CG17648	1	182	147		
CG13443	1	61.4	109		
CG30268	1	99.9	108		
CG7239	1	129	158		
CG7239	2	120	143		

Sorted by “calcium signal, replicate 1” (descending): 5 of the entries above.
Gene	reagent no.	calcium signal, replicate 1	calcium signal, replicate 2	retest calcium signal, replicate 1	retest calcium signal, replicate 2
CG17648	1	182	147		
CG7239	1	129	158		
CG7239	2	120	143		
CG30268	1	99.9	108		
CG13443	1	61.4	109		

More entries follow:
Gene	reagent no.	calcium signal, replicate 1	calcium signal, replicate 2	retest calcium signal, replicate 1	retest calcium signal, replicate 2
Prosalpha3T (Proteasome alpha3 subunit, Testis-specific)	1	149	161		
awd (abnormal wing discs)	1	76.9	109		
CG14971	1	95.3	103		
Phb2 (Prohibitin 2)	1	44.6 (active)	145		
shi (shibire)	1	179	171		
THADA	1	134	151		
psd (palisade)	1	140	102		
Hpd (4-hydroxyphenylpyruvate dioxygenase)	1	117	91.9		
CG4714	1	128	113		
Btnd (Biotinidase)	1	247	81.5		
gt (giant)	1	100	113		
gt (giant)	2	111	141		
CG3437	1	113	122		
CAHbeta (Carbonic anhydrase beta)	1	98.4	131		
CG11384	1	102	127		
B4	1	85.5	123		
B4	2	91.6	109		
Bub1 (Bub1 kinase)	1	132	209		
Bub1 (Bub1 kinase)	2	92.5	154		
IP3K1 + hpRNA:CR18854	1	111	158		
Lamtor1 (Late endosomal/lysosomal adaptor, MAPK and MTOR activator 1)	1	126	129		
Dok (Downstream of kinase)	1	223	115		
CG15011	1	94.1	167		
CG18675	1	79.5	75		
Mur2B (Mucin related 2B)	1	76	122		
Mur2B (Mucin related 2B)	2	129	115		
Cyp12b2 (Cytochrome P450 12b2)	1	156	163		
sws (swiss cheese)	1	96.7	84	127	179
scpr-A + scpr-C	1	153	83.3		
CG10752	1	95.7	83.3		
CG30389	1	141	90.9		
CG30389	2	115	84.3		
gro (groucho)	1	88.5	164		
CG43133	1	90	148		
